Laboratory results published in ChEMBL document CHEMBL3881525, “Analogs of dehydrophenylahistins and their therapeutic use” (2007).
pIC50: −log10 of the molar value.

Test: Antimitotic activity in human MCF7 cells assessed as mitotic index measured after 20 hrs by DAPI-staining based fluorescence microscopic analysis
Type: functional, cell-based

Q: With `COc1cc2c(c(OC)c1OC)-c1ccc(OC)c(=O)cc1[C@@H](NC(C)=O)CC2` [COLCHICINE] as the compound, how does the pIC50 read?
A: The pIC50 was 7.62.
